No constants are given. Whether binding was seen depends on the method and setting. In cells and extracts the contact can be indirect. These calls come from enrichment with a bait or labelling near it, and not all partners need be listed.
B1: SMU_723 (protein, UniProt Q8DV01 1-893)
chain: MFKKQKRDSFYVQDEKTVLSGLESSKKGLTSTQAKQRLADYGYNELEEDEKRTILAKFIDQFKDLMIIILLVAAALSVITEGMGGLTDAIIILVVVVLNAAFGVYQEGQAEAAIEALKSMSSPHARVRRDGHVTEIDSKELVPGDVVLLEAGDVVPADMRLLEAASLKIEEAALTGESVPVEKSVTVAIASDAGIGDRLNMAYQNSNVTYGRGMGVVTNTGMYTEVGHIAGMLANADETDTPLKQSLDNLSKVLTYVIIIIAIITCLVGIFVRHEEPLEGLMVAVALAVAAIPEGLPAIVTVVLSLGTKTLAKRQSIVRKLPAVETLGSTEIIASDKTGTLTMNQMTVEKVYYNGRLVDANDDIDVNNMALRVMNFANDSKVDANGKLIGDPTETALVQYGFDHNFDIREVLKAELRVAELPFDSDRKLMSTIHKLDGEKYLIAVKGAPDQLLKRITQIEIDGSIRPITEDDKKAILDMNKSLAKQALRVLMIAYKYESEIPKLETAVVENDLIFAGLVGMIDPERPEAAEAVHVAKEAGIRPIMITGDHQDTAEAIAKRLGIIDDDGIDHVFTGAELNELSDEEFQKVFKQYSVYARVSPEHKVRIVKAWQNDGKIVAMTGDGVNDAPSLKTADIGIGMGITGTEVSKGASDMVLADDNFATIIVAVEEGRKVFSNIQKSIQYLLSANMAEVFTIFFATLFGWDVLQPVHLLWINLVTDTLPAIALGVEPAEPGVMTHKPRGRKSSFFSGGVMGAIIYQGILQTLLVLGVYGWAVFFPEHATRTEIHADALTMAFATLGLIQLVHAYNVKSVYQSIFKVGFFKNKTFNWALPTALIIMLATIVIPGFNRFFHVSHLSVTQWCVVVGGSLAMFVIVEIVKAIQRVLGQDQKAI
B2: GlmM (enzyme, UniProt Q8DTC6 1-449)
chain: MGKYFGTDGVRGEANVELTPELAFKLGRFGGYVLSQHEPDRPRVFVARDTRISGELLESALVAGLLSVGIEVYKLGVLATPGVSYLVRTEQASAGVMISASHNPALDNGIKFFGGDGFKLADEQEAEIEALLDAKEDDLPRPSAQGLGMVVDYPEGLRKYEKFLVSTGSDLEGMKIAIDAANGAASYSARQVFLDLNADITVIGEEPDGLNINDGVGSTHPEQLQNLVKGSDFVIGLAFDGDSDRLIAVDENGEIVDGDKIMYIIGKYLSEKGRLSKNTIVTTVMSNLGFHKALDRENINKKITAVGDRYVVEEMRRSGYNLGGEQSGHVIIMDYNTTGDGQLTAIQLTKVMKETGKTLSELANEVTIYPQKLVNIYVKNDMKNKAMEVPMIAQIIEKMEAEMAGNGRILVRPSGTEPLLRVMAEAPSTEEVNYYVDTIAKVVKTEIGI
B3: PttB (protein, UniProt I6L905 1-655)
chain: MGKFEKDAKVLLDAIGGKENVSAVTHCATRMRFVLNDESKADVKTIEAIPAVKGTFTNAGQFQIIIGNDVPLFYNDFTAVSGIEGVSKETAKSAAKSHQNPIQRVMTLLAEIFTPIIPAIIVGGLILGFRNVIDQVQWGFLDGQTIAQHSQFWSGISSFLWLPGEAIFQFLPVGIVWSVSRKMGTSQILGIVLGICLVSPQLLNAYNVASTPAAEIAKKWVWDFGFFTVRRIGYQGQVIPALLAGLSLSYLEIFWRKKIPEVVSMIFVPFLSLIPALILAHTVLGPIGWTIGQWISTIVYAGLTGPVKWLFGAIFGALYAPFVITGLHHMTNAIDTQLVADTGGTGLWPMIALSNIAQGSAVFAYYLMNRHEEREAQVSLPATISAYLGVTEPALFGVNIKYVYPLVAGMIGSSIAGFLSVTFNVTANAIGIGGLPGILSIKVKYMLPFFIIMLVAIAVPMVLTVFFRRINFLTKSEDEAHQEKTETAEISASEKTNEPAVGTTFEIKSPLKGQVKPLSEAVDPVFAQGVMGQGVLIDPSEGLLTSPVNGVVSVLFPTKHALGLVTDQGLELLIHIGMDTVNLEGKGFETYVKQGDTIKVGDKLIRFDIDAIHQAGYTTETPVIVTNQNDYQPDVVGSLPREIERGEVLLTASKI
B4: GapC (enzyme, UniProt Q8DVV3 1-337)
chain: MVVKVGINGFGRIGRLAFRRIQNVEGVEVTRINDLTDPNMLAHLLKYDSTQGRFDGNVEVKEGGFEVNGKFVKVSAERDPEQIDWAADGVEIVLEATGFFASKAAAEKHLHANGGAKKVVITAPGGNDIKTIVFNTNHDVLDGTETVISGASCTTNCLAPMAKALHDNFSIKEGLMTTIHAYTGDQMVLDGPHRKGDLRRARAAAANIVPNSTGAAKAIGLVIPELNGKLDGAAQRVPVPTGSVTELVAVLDKKVTVDEVNAAMKAAANESYGYTEDPIVSSDIVGMSFGSLFDATQTKVLDVDGKQLVKVVSWYDNEMSYTSQLVRTLEYFAKIAK
B5: Ftf (enzyme, UniProt P11701 37-795)
chain: DEANSTQVSSELAERSQVQENTTASSSAAENQDKTEVKETPSTNPAAATVENTDQTTKVITDNAAVESKASKTKDQAATVTKTSASTPEVGQTNEKAKATKEADITTPKNTIDEYGLTEQARKIATEAGINLSSLTQKQVEALNKVKLTSDAQTGHQMTYQEFDKIAQTLIAQDERYAIPYFNAKAIKNMKAATTRDAQTGQIADLDVWDSWPVQDAKTGEVINWNGYQLVVAMMGIPNTNDNHIYLLYNKYGDNNFDHWKNAGSIFGYNETPLTQEWSGSATVNEDGSLQLFYTKVDTSDKNSNNQRLATATVNLGFDDQDVRILSVENDKVLTPEGGDGYHYQSYQQWRSTFTGADNIAMRDPHVIEDENGDRYLVFEASTGTENYQGEDQIYNFTNYGGSSAYNVKSLFRFLDDQDMYNRASWANAAIGILKLKGDKKTPEVDQFYTPLLSSTMVSDELERPNVVKLGDKYYLFTASRLNHGSNNDAWNKANEVVGDNVVMLGYVSDQLTNGYKPLNNSGVVLTASVPADWRTATYSYYAVPVAGSSDTLLMTAYMTNRNEVAGKGKNSTWAPSFLIQVLPDGTTKVLAEMTQQGDWIWDESSRTTDTVGTLDTAYLPGENDGYIDWNVIGGYGLKPHTPGQYQPTVPSTPIHTDDIISFEVSFDGHLVIKPVKVNNDSAGRIDQSRNSGGSLNVAFNVYAGGNISVKPSQKSINNTKETKKAHHVSTEKKQKKGNSFFAALLALFSAFCVSIGFK
B6: GuaB (enzyme, UniProt Q8DRR2 1-493)
chain: MSNWDTKFLKKGYTFDDVLLIPAESHVLPNEVSMQTKLAKNLTLNIPIITAAMDTVTDSKMAIAIARAGGLGVVHKNMSIKEQAEEVRKVKRSENGVIIDPFFLTPEHKVSEAEELMQRYRISGVPVVETLDNRKLIGIITNRDMRFISDYETPISEHMTSEKLVTAPVGTDLETAERILHEHRIEKLPLIDEKGRLSGLITIKDIEKVIEFPNAAKDEFGRLLVAGAVGVTSDTFERAEALFEAGADAIVIDTAHGHSAGVLRKIAEIRAHFPDRTLIAGNIATAEGARALYEAGVDVVKVGIGPGSICTTRVVAGVGVPQITAIYDAASIAREYGRTIIADGGIKYSGDIVKALAAGGNAVMLGSMFAGTDEAPGETEIFQGRKFKTYRGMGSIAAMKKGSSDRYFQGSVNEANKLVPEGIEGRVAYKGAAADIVFQMLGGIRSGMGYVGAANLKELHENAQFIEMSGAGLIESHPHDVQITNEAPNYSVQ
B7: LivF (protein, UniProt Q8DSU4 1-236)
chain: MAMLKVENLSVHYGVIQAVKDVSFDVNEGEVVSLIGANGAGKTSILRTISGLVRPSSGEINFLGNDIQKAATRKIVASGLSQVPEGRHVFPGLTVLENLEMGAFLSNNREENLARLKRVFERFPRLEERKNQDAATLSGGEQQMLAMGRALMSQPKLLLLDEPSMGLAPIFIQEIFDIIQDIQKQGTTVLLIEQNAKKALSIADRGYVLETGKIVLSGTGKELLASDEVQKAYLGG
B8: LivG (protein, UniProt Q8DSU3 1-254)
chain: MALLDVKNLTKNFGGLTAVGDVTLELNEGELVGLIGPNGAGKTTLFNLLTGVYEPSEGSVELDGTLLNGKTPYKIASLGLSRTFQNIRLFKNMTVIENVLVGMENTRNPHLFSSFLRLPSFYSNETDLQEKAIELLKIFNLDDKADTLAKNLPYGQQRRLEIVRALATKPKILFLDEPAAGMNPQETAELTELIRQIKEEFSITIMLIEHDMSLVMDVTERIYVLEYGRLIAQGTPEEIKHNKRVIEAYLGGEA
B9: FtsZ (protein, UniProt Q8DVD9 1-434)
chain: MAFSFDAASVQGAVIKVIGVGGGGGNAINRMIDEGVAGVEFIAANTDIQALSSSKAETVIQLGPKLTRGLGAGGQPEIGRKAAEESEEALTEALTGADMVFITAGMGGGSGTGAAPVIARIAKGLGSLTVAVVTRPFGFEGSKRGNYAIEGINELRDEVDTLLIISNNNLLEIVDKKTPLLEALSEADNVLRQGVQGITDLITSPGLINLDFADVKTVMASKGNALMGIGIGTGEERVVEAARKAIYSPLLETTIDGAEDVIVNVTGGLDMTLTEAEEASEIVNQAAGHGVNIWLGTSIDDSMKDEIRVTVVATGVRPDKADQVSGIRRQASSYTQPRAQQQAPSSNSAQPNFERRQNFDFDLNESPEMPAAEPQQTQSSSEPQQSAFGDWNLRRENIARPTEGEIDSQLKMSSFSADSDDDDELETPPFFKNR
B10: GroEL (protein, UniProt Q8CWW6 1-542)
chain: MAKDIKFSADARSSMVRGVDILADTVKVTLGPKGRNVVLEKSFGSPLITNDGVTIAKEIELEDHFENMGAKLVSEVASKTNDIAGDGTTTATVLTQAIVREGLKNVTAGANPIGIRRGIETAVATAVDELKAIAQPVSGKEAIAQVAAVSSRSEKVGEYVSEAMEKVGNDGVITIEESRGMETELDVVEGMQFDRGYLSQYMVTDNEKMVADLENPYLLITDKKISNIQDVLPLLEEVLKTNRPLLIIADDVDGEALPTLVLNKIRGTFNVVAVKAPGFGDRRKAMLEDIAVLTGGTVITEDLGLELKDTTIDALGQAARVTVDKDSTVIVEGSGGKEAVANRVNLIKSQIETATSDFDREKLQERLAKLSGGVAVIKVGAATETELKEMKLRIEDALNATRAAVEEGIVAGGGTALINVIEKVAALDLTDDAATGRNLVLRALEEPVRQIAKNAGYEGSVIIDKLKNSSAGTGFNAANGEWVDMIDAGIIDPVKVTRSALQNAASVASLILTTEAVVADHPAPEAPAAAPAMDPSMMGGMM

Each binder was assayed against DacA-FLAG (diadenylate cyclase DacA with C-terminal FLAG tag) (Streptococcus mutans) (assay: affinity purification with mass spectrometry).
In the case of B1, the binding is reported as “binds”. B2 was tested, and the binding was “binds”.

Biological target: DacA-FLAG (diadenylate cyclase DacA with C-terminal FLAG tag) (Streptococcus mutans)
Assay: affinity purification with mass spectrometry
Remark: another data set of the same source
B1 was tested, and the binding was “binds”. For B3, the binding was “binds”. B4 was tested, and the binding was “binds”. In the case of B5, the binding is reported as “binds”. B6 was tested, and the binding was “binds”. B7 was tested, and the binding was “binds”. For B8, the binding was “binds”. In the case of B9, the binding is reported as “binds”. For B10, the binding was “binds”.

Biological target: DacA-FLAG (diadenylate cyclase DacA with C-terminal FLAG tag) (Streptococcus mutans)
Assay: affinity purification with mass spectrometry
Remark: another data set of the same source
In the case of B3, the binding is reported as “binds”.

From article doi:10.64898/2025.12.11.693769
